No constants are given. Whether binding was seen depends on the method and setting. In cells and extracts the contact can be indirect. Some entries that bind do so weakly or less than the wild type. Tags and fused reporters may be left off the sequences shown.
What was measured:
Assay in all cases: co-IP; anti-FLAG IP of FLAG-STUB1 variants from lysates of sgSTUB1-expressing HEK293T cells co-transfected with Myc-JAK1 and V5-IFNγ-R1; NP-40 buffer (1% NP40, 150 mM NaCl, 10 mM TrisHCl, pH 7.4); 10 μg IP antibody 2 h at 4 °C, Protein A beads 2 h at 4 °C; immunoblot
[1] = target: FLAG-tagged full-length STUB1 (STIP1 homology and U-box containing protein 1) (UniProt Q9UNE7)
[2] = target: FLAG-tagged STUB1 K30A (UniProt Q9UNE7)
[3] = target: FLAG-tagged STUB1 H260Q (UniProt Q9UNE7)

Chains of the proteins cited; added tags and fusions are not shown. Lines headed by an entry give the natural chain unless they say otherwise; changes in a name come on top.
UniProt Q9UNE7: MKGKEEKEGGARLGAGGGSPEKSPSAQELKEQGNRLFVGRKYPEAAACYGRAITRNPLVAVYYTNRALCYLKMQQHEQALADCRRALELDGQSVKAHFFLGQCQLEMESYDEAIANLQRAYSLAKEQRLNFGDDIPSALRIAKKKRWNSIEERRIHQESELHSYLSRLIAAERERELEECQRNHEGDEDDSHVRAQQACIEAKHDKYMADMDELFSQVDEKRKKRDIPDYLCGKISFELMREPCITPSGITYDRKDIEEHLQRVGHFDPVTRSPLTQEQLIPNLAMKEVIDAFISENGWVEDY

Measured: binding

B1: V5-tagged IFNγ-R1 (receptor, UniProt P15260 18-489)
chain: EMGTADLGPSSVPTPTNVTIESYNMNPIVYWEYQIMPQVPVFTVEVKNYGVKNSEWIDACINISHHYCNISDHVGDPSNSLWVRVKARVGQKESAYAKSEEFAVCRDGKIGPPKLDIRKEEKQIMIDIFHPSVFVNGDEQEVDYDPETTCYIRVYNVYVRMNGSEIQYKILTQKEDDCDEIQCQLAIPVSSLNSQYCVSAEGVLHVWGVTTEKSKEVCITIFNSSIKGSLWIPVVAALLLFLVLSLVFICFYIKKINPLKEKSIILPKSLISVVRSATLETKPESKYVSLITSYQPFSLEKEVVCEEPLSPATVPGMHTEDNPGKVEHTEELSSITEVVTTEENIPDVVPGSHLTPIERESSSPLSSNQSEPGSIALNSYHSRNCSESDHSRNGFDTDSSCLESHSSLSDSEFPPNNKGEIKTEGQELITVIKAPTSFGYDKPHVLVDLLVDDSGKESLIGYRPTEDSKEFS
binds: all assays above

Source: paper PMC8993893
